Assay results as given in US20260035475A1.
No constants are given. Whether binding was seen depends on the method and setting. Some results given as binding are weak or reduced against the parent protein; the word gives no strength.

Amino acid sequences for entries named in this document (tags omitted). Residues count along the entry.
UniProt P02787, residues 20-698: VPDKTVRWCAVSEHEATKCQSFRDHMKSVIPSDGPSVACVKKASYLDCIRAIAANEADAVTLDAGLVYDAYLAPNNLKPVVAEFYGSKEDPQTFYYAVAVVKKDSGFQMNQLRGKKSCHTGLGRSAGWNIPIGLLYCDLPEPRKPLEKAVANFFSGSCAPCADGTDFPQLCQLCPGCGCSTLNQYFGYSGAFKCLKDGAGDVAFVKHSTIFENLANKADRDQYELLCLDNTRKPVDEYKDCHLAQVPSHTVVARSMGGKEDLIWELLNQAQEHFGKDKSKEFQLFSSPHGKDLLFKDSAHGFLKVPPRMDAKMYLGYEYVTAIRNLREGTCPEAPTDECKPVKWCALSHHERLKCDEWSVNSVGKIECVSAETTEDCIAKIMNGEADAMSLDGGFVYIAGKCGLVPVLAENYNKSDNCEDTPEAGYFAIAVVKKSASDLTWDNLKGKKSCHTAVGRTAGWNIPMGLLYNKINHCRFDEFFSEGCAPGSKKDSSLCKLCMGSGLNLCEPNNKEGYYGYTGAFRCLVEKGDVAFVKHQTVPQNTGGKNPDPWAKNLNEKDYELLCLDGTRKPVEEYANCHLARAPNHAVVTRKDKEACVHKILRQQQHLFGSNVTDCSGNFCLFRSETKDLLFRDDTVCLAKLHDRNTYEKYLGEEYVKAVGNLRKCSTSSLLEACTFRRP

Molecular target: cynomolgus TfR1 (cTfR1), recombinant, construct not stated (cynomolgus)
Assay: BLI, transferrin on streptavidin sensors captures TfR1

In the case of “human holo-transferrin (from UniProt P02787 20-698) (ligand)”, the binding is reported as “binds”.
